Measured values published in publication PMC12288536, “Development of an atrazine immunoassay based on highly catalytically active Au@PtNPs and specific nanobody” (Research Square, 2025).

Assay: Spike-recovery of samples determined by dc-ELISA

## CCNc1nc(Cl)nc(NC(C)C)n1 [Atrazine]
River water, spiked 1 μg/mL
  Average recovery: 103%
  Found: 1.03 ± 0.023 µg/mL
River water, spiked 5 μg/mL
  Average recovery: 102%
  Found: 5.11 ± 0.043 µg/mL
River water, spiked 10 μg/mL
  Average recovery: 100%
  Found: 10.0 ± 0.034 µg/mL
soil, spiked 1 μg/mL
  Average recovery: 114%
  Found: 1.14 ± 0.047 µg/mL
soil, spiked 5 μg/mL
  Average recovery: 99.4%
  Found: 4.97 ± 0.049 µg/mL
soil, spiked 10 μg/mL
  Average recovery: 101%
  Found: 10.1 ± 0.030 µg/mL
Tap water, spiked 1 μg/mL
  Average recovery: 98.2%
  Found: 0.982 ± 0.034 µg/mL
Tap water, spiked 5 μg/mL
  Average recovery: 97.4%
  Found: 4.87 ± 0.045 µg/mL
Tap water, spiked 10 μg/mL
  Average recovery: 99.1%
  Found: 9.91 ± 0.037 µg/mL
